# According to PubChem BioAssay AID2685 (National Center for Advancing Translational Sciences (NCATS), 2010):
# In all, about 320,000 compounds went through this assay and about 2,100 (0.66%) were called active. The shares of active, inactive and inconclusive entries below differ from those in the screen. Calls come from the whole dose curve; as a rule, active = well fitted inhibition curve with a large enough effect in the signal ratio, with a control signal flat (not every such curve was filed as active); inconclusive = small, poorly fitted or top-dose-only effect, or effect the other way, or a change in a side signal; inactive = flat fitted curve, though single readings scatter; the % refers to the signal ratio. Potencies of inconclusive entries are doubtful fits and often do not repeat.
# Assay: qHTS Assay for Lipid Storage Modulators in Drosophila S3 Cells
# Details: BODIPY lipid droplet fluorescence, 18-24 h, cells fed with added oleic acid; lipid storage change, negative = inhibition: at 46.1 µM (top of the series) unless noted
# How it was run: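 Laser-scanning cytometry quantifies lipid droplet accumulation (500–530 nm total intensity; droplet/cell object ratio) in oleic acid-fed (400 uM added) Drosophila S3 cells treated with a concentration series. 20 uM Triacsin C defined 100% inhibition.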
# % is set by controls: 0 for no effect and ±100 for the full control effect; potency is the fitted concentration of half-maximal effect.
SMILES,"lipid storage change, negative = inhibition",Potency
CCOCCc1nnc(NC(=O)C(C)Oc2ccccc2)s1 (configuration not stated),inconclusive: -17.1% [at 9.22 µM],–
O=C(CNC(=O)C12CC3CC(CC(C3)C1)C2)OCC(=O)N1CCCCC1,inconclusive,–
COC(=O)c1sc(SC)c2c1CC(C)(C)C/C2=N/O,inconclusive: -66.3%,–
COc1ccc(-c2cc(C(=O)N(C)Cc3cccc(OC)c3OC)c3ccccc3n2)cc1OC,–,"inconclusive: 5.8 µM [activator, partial curve]"
CCOC(=O)c1c(C)n(-c2ccc(C)cc2)c2ccc(O)c(CN(C)C)c12,–,"inconclusive: 0.13 µM [falling, full curve, poor fit]"
O=C(CCNS(=O)(=O)c1ccc(Cl)cc1)N1CCN(c2ncccn2)CC1,inconclusive,–
O=C(O)C1CCN(S(=O)(=O)c2ccc(N3CCOCC3)c([N+](=O)[O-])c2)CC1,inconclusive: -0.0315%,–
COC(=O)CCCCCN1C(=O)NC(c2ccccc2)C(C(=O)OCc2ccccc2)=C1C (configuration not stated),inactive,–
O=C(Cc1ccc(S(=O)(=O)N2CCOCC2)s1)Nc1nc2c(s1)CCCC2,inconclusive: -16.3%,–
C=CCNC(=O)NC(=O)COC(=O)c1cccnc1SC,inconclusive: -3.25%,–
S=c1[nH]nc(-c2cccnc2)n1/N=C/c1ccco1,inactive,–
COc1ccc(C2=NOC(C(=O)Nc3cccnc3)C2)cc1OC (configuration not stated),inconclusive: 35.5%,–
CCN(Cc1ccccc1)C(=S)NC(=O)c1ccccc1Br,–,"inconclusive: 29.1 µM [falling, single point]"
Cc1nnc(NC(=O)CSc2nnc(Cc3cccn3C)n2CCc2ccccc2)s1,inconclusive: 9.97%,–
COc1ccc(/C=N/NC(=O)Cc2cc(OC)c(OC)cc2[N+](=O)[O-])cc1,inconclusive: 5.36%,–
O=C1CSC(c2cccc(F)c2)N1c1ccccc1F (configuration not stated),inconclusive: -12.4%,–
COc1ccc(/C=N/NC(=O)C(=O)Nc2ccccn2)cc1OC,inconclusive: -1.2%,–
O=C(O)c1cc(S(=O)(=O)N2CC3CC3C2C(=O)O)c(Cl)cc1Cl (configuration not stated),inconclusive: -21.6%,–
CCc1cccc(CC)c1NC(=O)/C(C#N)=C/c1ccccc1C(F)(F)F,inconclusive: -92.5%,–
CCCC(=O)N1CCN(c2ccc(NC(=O)c3ccc([N+](=O)[O-])o3)cc2Cl)CC1,inconclusive: -40.6%,–
Cc1ccc(C)c(C(C)NC(=O)c2ccc(Br)o2)c1 (configuration not stated),inconclusive: -18% [at 9.22 µM],–
Cc1onc(-c2c(F)cccc2Cl)c1C(=O)Nc1ccc(Cl)c(S(=O)(=O)N(C)C)c1,–,"inconclusive: 29.1 µM [activator, single point]"
C#CCn1c(-c2ccccc2)ccc(C#N)c1=O,inconclusive: 47.5%,–
CC(C)C(=O)Nc1cc(-c2nc3ncccc3o2)ccc1Cl,inconclusive: 24.9%,–
COc1ccc(-n2nnnc2SCC(=O)Nc2cccc(C)n2)cc1OC,–,"inconclusive: 2.06 µM [activator, full curve]"
C=CCSc1nc2sc3c(c2c(=O)n1-c1ccccc1)CCN(C)C3,inconclusive: -0.823%,–

# Compounds above that contain a Cl atom:
SMILES,"lipid storage change, negative = inhibition",Potency
O=C(CCNS(=O)(=O)c1ccc(Cl)cc1)N1CCN(c2ncccn2)CC1,inconclusive,–
O=C(O)c1cc(S(=O)(=O)N2CC3CC3C2C(=O)O)c(Cl)cc1Cl (configuration not stated),inconclusive: -21.6%,–
CCCC(=O)N1CCN(c2ccc(NC(=O)c3ccc([N+](=O)[O-])o3)cc2Cl)CC1,inconclusive: -40.6%,–
Cc1onc(-c2c(F)cccc2Cl)c1C(=O)Nc1ccc(Cl)c(S(=O)(=O)N(C)C)c1,–,"inconclusive: 29.1 µM [activator, single point]"
CC(C)C(=O)Nc1cc(-c2nc3ncccc3o2)ccc1Cl,inconclusive: 24.9%,–

# Following part.

SMILES,"lipid storage change, negative = inhibition",Potency
O=C1N(c2ccccc2)C[C@@H]2C[C@@H](c3cc4ccccc4o3)N3CCC[C@@]123,inconclusive: -18%,–
COc1cccc(CNC(=O)C2CCN(C(=O)N3CC(C)Oc4ccccc43)CC2)c1 (configuration not stated),inconclusive: -34.1%,–
COC(=O)c1ccc(OCC(=O)N2CCCc3ccccc32)cc1,inconclusive: 23.3%,–
O=S(=O)(NCCc1cccs1)c1ccc(Br)cc1,inconclusive: -17.4%,–
COc1cccc(N2CCN(C(=O)C3CCC(=O)N(C4CCCCCC4)C3)CC2)c1 (configuration not stated),inconclusive: -40.4%,–
O=C(O)c1ccc(Sc2nnc(-c3cccc(Br)c3)o2)c([N+](=O)[O-])c1,–,active: 25.9 µM
c1ccc(Nc2nc(-c3ccccc3)nc3ccccc23)cc1,–,"inconclusive: 2.59 µM [activator, partial curve]"
O=C(NC1CCCc2ccccc21)c1ccccc1OC(F)F (configuration not stated),–,"inconclusive: 6.51 µM [activator, partial curve, poor fit]"
CCN(CC)C1CCN(C(=O)c2ccc3nc(Cc4ccc(OC)cc4)oc3c2)C1 (configuration not stated),inconclusive: 28.8%,–
O=C(Nc1ccc2c(c1)OCO2)C1CCCCC1,–,"inconclusive: 0.651 µM [activator, full curve]"
COc1ccc(-c2c(-c3ccccc3OC)oc3ccccc23)cn1,inconclusive: 4.07%,–
CCc1noc(C)c1C(=O)Nc1ccc(S(=O)(=O)N2CCCCC2)cc1,inconclusive: 27.7%,–
O=C(N/N=C/c1cccc(OCc2ccccc2)c1)c1cccs1,inconclusive: -42.7%,–
CC(C)(C)NC(=O)c1ccccc1-c1nc2ccccc2s1,–,"inconclusive: 0.0065 µM [falling, full curve, poor fit]"
CCCCc1nc2ccccc2[nH]1,–,"inconclusive: 0.0058 µM [falling, full curve, poor fit]"
Cc1ccc(NC(=O)c2cccc(S(=O)(=O)N3CCN(c4ccc(F)cc4)CC3)c2)nc1,–,"inconclusive: 18.4 µM [falling, single point]"
Cc1ccc(S(=O)(=O)N2[C@@H](c3ccc(F)cc3)C(C(=O)O)=CC[C@H]2c2cccc(Cl)c2)cc1,inconclusive: 1.45%,–
Cc1ccc(OCc2cc(C(=O)N3CCCC(O)C3)no2)cn1 (configuration not stated),–,"inconclusive: 6.51 µM [activator, single point]"
N#Cc1nc(-c2ccccc2)oc1NCCN1CCCCC1,inconclusive: 21.4%,–
CC(OC(=O)Cc1c(F)cccc1Cl)C(=O)NC1CCCCC1C (configuration not stated),–,active: 16.4 µM
O=[N+]([O-])c1cc(S(=O)(=O)N2CCCC2)ccc1N/N=C/c1cccnc1,inconclusive: -3.35%,–
CC(=O)C[C@H](O)CC(=O)[C@@H]1OC(=O)CCCCCCc2ccccc21,–,"inconclusive: 1.16 µM [activator, full curve]"
Cc1cc(C(C)(C)C)ccc1OC(=O)C1=CC=CN2CCS(=O)(=O)N=C12,inconclusive,–
Cc1nc2cc3nc(C)sc3cc2s1,–,"inconclusive: 2.59 µM [activator, partial curve]"
O=C1CCCN1C(=O)COc1ccccc1[N+](=O)[O-],inconclusive,–
Cc1cc(NC(=O)CSc2nnc(NCc3ccccc3)s2)no1,inconclusive: -6.73%,–

SMILES,"lipid storage change, negative = inhibition",Potency
Cc1ccc(NC(=O)CCNC(=O)Cn2ccc3ccccc3c2=O)cc1F,–,"inconclusive: 5.8 µM [falling, single point]"
O=S(=O)(c1ccc(NC2CCCCC2)cc1)N1CCOCC1,inconclusive: 148%,–
Cc1ccc(Nc2cnn(C34CC5CC(CC(CC(=O)O)(C5)C3)C4)c(=O)c2Cl)cc1,inconclusive: -23.5%,–
N=c1c2c(-c3ccccc3)c(-c3ccccc3)n(Cc3ccccc3)c2ncn1CCO,inconclusive: -12.8%,–
Cc1ccc(S(=O)(=O)N2CCC(C(=O)N3CCCC(C(F)(F)F)C3)CC2)cc1C (configuration not stated),inconclusive: 26.7%,–
Cc1ccc2[nH]c3c(c2c1)CCN(C)C3,–,"inconclusive: 0.0058 µM [activator, full curve]"
CN1CCN(S(=O)(=O)Cc2ccccc2Cl)CC1,–,"inconclusive: 0.731 µM [falling, single point]"
O=C(/C=C/c1ccco1)NC(=S)Nc1ccc(Cl)cn1,–,"inconclusive: 13 µM [activator, partial curve, poor fit]"
CN(C(=O)COC(=O)C1CCN(S(=O)(=O)c2ccc3c(c2)OCCO3)CC1)C1CCS(=O)(=O)C1 (configuration not stated),inconclusive: -19.4%,–
Cc1ccc(C(=O)N/N=C/c2ccc(-c3cccc(Cl)c3)o2)cn1,inactive,–
O=C(NCc1nc(-c2ccccc2)cs1)c1ccccc1,inconclusive: -20.9%,–
CC1CCCC(C)N1C(=O)COc1ccc(-c2nnco2)cc1 (configuration not stated),inconclusive: 26.2%,–
O=C(NCCc1ccc(Cl)cc1)C1CCCN1C(=O)NCc1ccccc1 (configuration not stated),–,"inconclusive: 0.116 µM [falling, full curve, poor fit]"
CC(C)Nc1ccc(C(CC(N)=O)NC(=O)c2ccccc2)cc1[N+](=O)[O-] (configuration not stated),–,"inconclusive: 7.31 µM [falling, single point]"
COc1ccc(N=Cc2oc3ccc4ccccc4c3c2O)cc1,–,"inconclusive: 29.1 µM [falling, single point]"
COc1ccc(Cl)cc1S(=O)(=O)N1CCC(C(=O)NC2CCCC2)CC1,inconclusive: -100%,–
Cc1cccc([N+](=O)[O-])c1NC(=O)COC(=O)C1CCCO1 (configuration not stated),–,"inconclusive: 0.82 µM [activator, single point]"
COc1ccc(-c2csc3nc(-c4ccc(C)cc4)oc(=O)c23)cc1OC,inconclusive: 37.9%,–
CCOc1ccc(CN2CCC(=O)NC2=O)cc1,inactive,–
COc1ccc(-n2c(=S)[nH]c3cc(C(=O)NCc4ccc(F)cc4)ccc3c2=O)c(OC)c1,–,"inconclusive: 0.651 µM [activator, partial curve, poor fit]"
O=C(Cc1c(F)cccc1Cl)Nc1ccccc1-c1ccccc1,–,"inconclusive: 7.31 µM [activator, partial curve]"
CCOC(=O)N1CCN(C(=O)CN(C2CCCCC2)S(=O)(=O)c2c(C)cc(C)cc2C)CC1,inconclusive: -17.8%,–
COc1cccc(Cn2c(-c3cccs3)noc2=O)c1,inconclusive: 55.6%,–
Cc1ccc(-n2c(SCC(=O)OC(C)C)nnc2-c2ccccn2)cc1,inconclusive: 11.9%,–
Cc1ccc2c(c1)N/C(=C(\C=C(/Cl)[N+](=O)[O-])[N+](=O)[O-])N2,inconclusive: 9.53%,–
